# Measured values as given in paper PMC7523510.
# Amino acid sequences for entries named in this document (tags omitted).
# UniProt P08103: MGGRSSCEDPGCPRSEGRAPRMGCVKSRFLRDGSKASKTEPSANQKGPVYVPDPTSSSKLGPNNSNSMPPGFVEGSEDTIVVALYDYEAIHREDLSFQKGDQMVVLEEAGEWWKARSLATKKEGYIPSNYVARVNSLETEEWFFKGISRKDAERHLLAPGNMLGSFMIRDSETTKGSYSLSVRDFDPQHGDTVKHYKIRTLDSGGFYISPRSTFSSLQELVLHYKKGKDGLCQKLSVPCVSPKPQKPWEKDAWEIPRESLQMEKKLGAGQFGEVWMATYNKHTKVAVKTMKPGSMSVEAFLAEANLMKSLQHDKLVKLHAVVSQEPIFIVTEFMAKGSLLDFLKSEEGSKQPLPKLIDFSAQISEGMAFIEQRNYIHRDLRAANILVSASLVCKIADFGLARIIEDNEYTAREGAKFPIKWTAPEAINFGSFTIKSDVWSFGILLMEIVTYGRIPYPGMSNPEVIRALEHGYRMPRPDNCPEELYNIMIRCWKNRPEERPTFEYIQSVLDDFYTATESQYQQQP
# UniProt Q8R4B8: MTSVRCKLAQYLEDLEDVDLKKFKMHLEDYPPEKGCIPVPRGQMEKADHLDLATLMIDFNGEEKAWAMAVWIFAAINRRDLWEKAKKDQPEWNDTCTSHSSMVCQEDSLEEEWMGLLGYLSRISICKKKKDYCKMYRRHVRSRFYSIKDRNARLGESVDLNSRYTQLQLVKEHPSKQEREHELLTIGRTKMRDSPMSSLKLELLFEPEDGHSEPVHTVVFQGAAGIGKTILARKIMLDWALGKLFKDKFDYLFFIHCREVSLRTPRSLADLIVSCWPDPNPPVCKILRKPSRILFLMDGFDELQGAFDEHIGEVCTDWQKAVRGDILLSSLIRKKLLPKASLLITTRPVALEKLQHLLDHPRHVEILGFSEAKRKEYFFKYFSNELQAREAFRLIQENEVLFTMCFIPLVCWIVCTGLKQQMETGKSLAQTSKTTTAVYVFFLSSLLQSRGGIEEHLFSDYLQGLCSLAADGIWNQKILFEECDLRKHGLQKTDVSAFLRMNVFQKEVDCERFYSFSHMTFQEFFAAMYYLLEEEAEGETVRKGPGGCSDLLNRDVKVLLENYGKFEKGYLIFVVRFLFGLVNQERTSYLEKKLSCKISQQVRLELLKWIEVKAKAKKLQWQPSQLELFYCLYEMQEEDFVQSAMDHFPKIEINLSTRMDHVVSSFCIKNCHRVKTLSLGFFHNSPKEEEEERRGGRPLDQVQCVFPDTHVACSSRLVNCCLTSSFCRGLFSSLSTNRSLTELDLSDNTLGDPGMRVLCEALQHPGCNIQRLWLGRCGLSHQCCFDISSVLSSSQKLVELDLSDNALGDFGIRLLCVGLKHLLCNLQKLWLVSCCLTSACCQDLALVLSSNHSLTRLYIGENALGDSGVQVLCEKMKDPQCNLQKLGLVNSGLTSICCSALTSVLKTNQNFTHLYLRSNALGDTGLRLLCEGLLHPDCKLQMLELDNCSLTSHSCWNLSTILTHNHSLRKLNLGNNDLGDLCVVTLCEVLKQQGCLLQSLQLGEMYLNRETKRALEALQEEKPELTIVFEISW
# These are yes or no findings as the source states them, for the method shown. In cells and extracts the contact can be indirect. Some binding calls cover weakened binding; strength is not graded here.
# Target: endogenous HCK (hematopoietic cell kinase) (mouse (endogenous in iBMDMs / PMs)) (UniProt P08103)
# Experiment: co-IP; endogenous proteins; LPS-primed iBMDMs treated or not with 1 μM A419259 and stimulated with 5 μM nigericin; anti-HCK or anti-ASC antibody on protein A/G magnetic beads, overnight at 4°C; immunoblot
substance,measurement,value
endogenous NLRP3 (from UniProt Q8R4B8 1-1033),binding,binds
